We go through 1 molecule from patent US20120329721A1, “MEANS FOR PREVENTING AND TREATING CELLULAR DEATH AND THEIR BIOLOGICAL APPLICATIONS” (CHIESI FARMACEUTICI S.P.A., priority 2003, published 2012).

For the series, the system named is primary cortical neurons. Conditions: Swiss, mouse.

`NS(=O)(=O)c1cc(C(=O)O)c(NCc2ccco2)cc1Cl` [furosemide]: the “concentration toxic for cortical neurons” value was “more than 3 mM”.
